These results are taken from paper PMC5996148.

The chains behind the UniProt entries cited, without tags or fusion partners. Where a name states a change or a piece, a line headed by the entry shows the natural chain unless it says otherwise.
UniProt Q9Y3Z3: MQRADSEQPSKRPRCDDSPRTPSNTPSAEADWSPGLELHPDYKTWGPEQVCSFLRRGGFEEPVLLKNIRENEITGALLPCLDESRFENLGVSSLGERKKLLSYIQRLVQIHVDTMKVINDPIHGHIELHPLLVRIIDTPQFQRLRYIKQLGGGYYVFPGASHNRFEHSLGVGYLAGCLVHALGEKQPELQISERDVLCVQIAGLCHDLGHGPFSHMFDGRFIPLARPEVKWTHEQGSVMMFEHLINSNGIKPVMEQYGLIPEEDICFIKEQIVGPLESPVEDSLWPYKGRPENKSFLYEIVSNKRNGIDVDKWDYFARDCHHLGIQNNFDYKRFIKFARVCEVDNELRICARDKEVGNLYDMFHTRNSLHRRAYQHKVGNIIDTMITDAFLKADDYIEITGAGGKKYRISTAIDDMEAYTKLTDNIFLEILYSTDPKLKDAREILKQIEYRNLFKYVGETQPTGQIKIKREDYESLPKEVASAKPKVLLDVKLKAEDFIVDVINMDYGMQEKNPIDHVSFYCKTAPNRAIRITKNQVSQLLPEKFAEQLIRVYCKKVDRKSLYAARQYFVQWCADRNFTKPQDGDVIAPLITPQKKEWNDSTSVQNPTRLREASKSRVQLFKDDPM

Among the test systems are SAA1 (human); SAA4 (human); SAE1 (human); SAMD13 (human); SAMD3 (human); SAMD4A (human); SAPS2 (human); SAR1A (human); SAR1B (human).
Holding throughout (test): protein microarray (ProtoArray v5.0), streptavidin-Alexa Fluor 647
Holding throughout (settings): 3'-biotin; 20 mM Tris (pH 7.5), 5 mM MgCl2, 100 mM KCl, 0.1% Tween-20, A/T-rich and random oligonucleotide blockers; temperature not stated; high values mean tight binding

A further assay has as its target SAMHD1 (UniProt Q9Y3Z3).

“And” between values parts separate entries of the source, which are not always exact repeats. Equal entries are not always repeated. The list shows a part of the results. For some of these results: The exact form of the protein is not confirmed.

Consider “GGGAGGCTGAGGCAGG [G4-1 biotinylated (PQS2)]”, for which the binding signal was -0.341 z-score with SAA1 (human); -0.334 z-score in the assay on SAA4 (human); -0.361 z-score in the assay with SAE1 (human); -0.32 z-score with SAMD13 (human); -0.315 z-score in the assay on SAMD3 (human); -0.354 z-score in the assay with SAMD4A (human). Besides, the binding signal with SAMHD1 was -0.279 z-score; in the assay on SAPS2 (human), -0.352 z-score and -0.331 z-score; in the assay on SAR1A (human), -0.356 z-score; with SAR1B (human), -0.36 z-score.
